Data: the supplement of paper PMC4604168 (melanoma cell lines)
The other results are listed elsewhere or left out. Many values rest on one well or one pass, so single values are uncertain.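 Imaging used 1,536-well plates; nuclei positive for cleaved PARP by antibody were divided by total DNA-stained nuclei to yield the apoptosis fraction. Doses for screening kept most cells viable, and cell lines differ markedly in resting and induced cleaved-PARP levels.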

Each compound was assayed on IPC-298 (assay: cleaved PARP positive nuclei fraction relative to DMSO control; melanoma cells; higher = more apoptosis). Details: library dose: low library concentration; 72 h.
With CS(=O)(=O)c1ccc(C(=O)Nc2ccc(Cl)c(-c3ccccn3)c2)c(Cl)c1 [vismodegib] + COc1cc(N2CCC(N3CCN(C)CC3)CC2)ccc1Nc1ncc(Cl)c(Nc2ccccc2S(=O)(=O)C(C)C)n1 [NVP-TAE684] (first compound 1 µM, partner dose 0.08 µM) the “cleaved PARP positive nuclei fraction” value was 97.5%. For NC(=O)c1ccc(N(C(N)=O)c2c(F)cccc2F)nc1-c1ccc(F)cc1F + O=C(O)C(=O)Nc1sc2c(c1C(=O)O)CCNC2 [TCS401] (first compound 0.4 µM, partner dose 1.66667 µM), the “cleaved PARP positive nuclei fraction” value was 224%. CCN(CC)CCNC(=O)c1c(C)[nH]c(/C=C2\C(=O)Nc3ccc(F)cc32)c1C [sunitinib] + CC(C)CCN1c2nc(Nc3cc(F)c(O)c(F)c3)ncc2N(C)C(=O)C1C [BID1870] (first compound 0.4 µM, partner dose 0.2 µM) was tested, and the “cleaved PARP positive nuclei fraction” value was 63.5%.

These compounds were tested on IST-MEL1 in the same assay as above. Details: library dose: low library concentration; 72 h.
In the case of NC1(c2ccc(-c3nc4ccn5c(=O)[nH]nc5c4cc3-c3ccccc3)cc2)CCC1 + Cc1cc([N+](=O)[O-])ccc1NS(=O)(=O)c1cc(Cl)ccc1Cl [FH535] (first compound 0.4 µM, partner dose 1 µM), the “cleaved PARP positive nuclei fraction” value was 83.5%. In the case of NC1(c2ccc(-c3nc4ccn5c(=O)[nH]nc5c4cc3-c3ccccc3)cc2)CCC1 + O=S(=O)(c1ccccc1)N(CC(F)(F)F)c1ccc(C(O)(C(F)(F)F)C(F)(F)F)cc1 [T0901317] (first compound 0.4 µM, partner dose 1.4 µM), the “cleaved PARP positive nuclei fraction” value was 172%. For CS(=O)(=O)c1ccc(C(=O)Nc2ccc(Cl)c(-c3ccccn3)c2)c(Cl)c1 [vismodegib] + Oc1cc(-c2nc(-c3ccccc3)[nH]c2-c2ccncc2)ccc1Cl [L779450] (first compound 1 µM, partner dose 0.2 µM), the “cleaved PARP positive nuclei fraction” value was 232%. In the case of C[C@]1(O)C[C@@H](c2nc(-c3ccc4ccc(-c5ccccc5)nc4c3)c3c(N)nccn32)C1 + CC(C)CCN1c2nc(Nc3cc(F)c(O)c(F)c3)ncc2N(C)C(=O)C1C [BID1870] (first compound 0.4 µM, partner dose 0.2 µM), the “cleaved PARP positive nuclei fraction” value was 103%. In the case of Cn1cnc2c(F)c(Nc3ccc(Br)cc3Cl)c(C(=O)NOCCO)cc21 [selumetinib] + CC(C)CCN1c2nc(Nc3cc(F)c(O)c(F)c3)ncc2N(C)C(=O)C1C [BID1870] (first compound 0.015 µM, partner dose 0.2 µM), the “cleaved PARP positive nuclei fraction” value was 57%. With C[C@]1(O)C[C@@H](c2nc(-c3ccc4ccc(-c5ccccc5)nc4c3)c3c(N)nccn32)C1 + CCN(CC)CCCCNc1ncc2cc(-c3cc(OC)cc(OC)c3)c(NC(=O)NC(C)(C)C)nc2n1 [PD173074] (first compound 0.4 µM, partner dose 0.1 µM) the “cleaved PARP positive nuclei fraction” value was 53.5%. For CCCCCCCCc1ccc(CCC(N)(CO)CO)cc1 [fingolimod] + Cn1cc(/C=C2\C(=O)Nc3cccnc32)c2ccccc21 [GW441756] (first compound 2 µM, partner dose 0.4 µM), the “cleaved PARP positive nuclei fraction” value was 104%. In the case of CS(=O)(=O)c1ccc(C(=O)Nc2ccc(Cl)c(-c3ccccn3)c2)c(Cl)c1 [vismodegib] + COc1ccc(COc2ccc(Cc3cnc(N)nc3N)cc2OC)cc1 [GW2580] (first compound 1 µM, partner dose 1 µM), the “cleaved PARP positive nuclei fraction” value was 240%. With CC(=O)O[C@@]12CO[C@@H]1C[C@H](O)[C@@]1(C)C(=O)[C@H](O)C3=C(C)[C@@H](OC(=O)[C@H](O)[C@@H](NC(=O)OC(C)(C)C)c4ccccc4)C[C@@](O)([C@@H](OC(=O)c4ccccc4)[C@H]21)C3(C)C [Docetaxel] + c1cc(-c2cnn3cc(-c4ccc(OCCN5CCCCC5)cc4)cnc23)ccn1 [Dorsomorphin] (first compound 0.0001 µM, partner dose 0.4 µM) the “cleaved PARP positive nuclei fraction” value was 140%. For CS(=O)(=O)c1ccc(C(=O)Nc2ccc(Cl)c(-c3ccccn3)c2)c(Cl)c1 [vismodegib] + O=C(Nc1ccccc1)c1cc([N+](=O)[O-])ccc1Cl [GW9662] (first compound 1 µM, partner dose 2 µM), the “cleaved PARP positive nuclei fraction” value was 28.5%. With NC(=O)c1ccc(N(C(N)=O)c2c(F)cccc2F)nc1-c1ccc(F)cc1F + COc1ccc(-c2ccc3c(N4CCOCC4)nc(N4C[C@@H](C)O[C@@H](C)C4)nc3n2)cc1CO [KU0063794] (first compound 0.4 µM, partner dose 0.02 µM) the “cleaved PARP positive nuclei fraction” value was 126%. For CN(c1ncccc1CNc1nc(Nc2ccc3c(c2)CC(=O)N3)ncc1C(F)(F)F)S(C)(=O)=O + Oc1nc(-c2ccc(C(F)(F)F)cc2)nc2c1CSCC2 [XAV939] (first compound 0.08 µM, partner dose 2 µM), the “cleaved PARP positive nuclei fraction” value was 169%. CS(=O)(=O)c1ccc(C(=O)Nc2ccc(Cl)c(-c3ccccn3)c2)c(Cl)c1 [vismodegib] + COC(=O)c1sccc1S(=O)(=O)Nc1ccc(Nc2ccccc2)cc1OC [GSK0660] (first compound 1 µM, partner dose 1 µM) was tested, and the “cleaved PARP positive nuclei fraction” value was 28.5%. In the case of Cn1sc(=O)n(Cc2ccccc2)c1=O + O=C(O)C(=O)Nc1sc2c(c1C(=O)O)CCNC2 [TCS401] (first compound 0.4 µM, partner dose 1.66667 µM), the “cleaved PARP positive nuclei fraction” value was 129%. In the case of Cn1cnc2c(F)c(Nc3ccc(Br)cc3Cl)c(C(=O)NOCCO)cc21 [selumetinib] + N#Cc1c(O)c2c(-c3ccc(-c4ccccc4O)cc3)csc2[nH]c1=O [A769662] (first compound 0.015 µM, partner dose 2 µM), the “cleaved PARP positive nuclei fraction” value was 26.1%. For CCN(CC)CCNC(=O)c1c(C)[nH]c(/C=C2\C(=O)Nc3ccc(F)cc32)c1C [sunitinib] + N#Cc1c(O)c2c(-c3ccc(-c4ccccc4O)cc3)csc2[nH]c1=O [A769662] (first compound 0.4 µM, partner dose 2 µM), the “cleaved PARP positive nuclei fraction” value was 34.4%. CS(=O)(=O)c1ccc(C(=O)Nc2ccc(Cl)c(-c3ccccn3)c2)c(Cl)c1 [vismodegib] + Cn1cc(/C=C2\C(=O)Nc3cccnc32)c2ccccc21 [GW441756] (first compound 1 µM, partner dose 0.4 µM) was tested, and the “cleaved PARP positive nuclei fraction” value was 40.3%. For COc1ccc(C2=N[C@@H](c3ccc(Cl)cc3)[C@@H](c3ccc(Cl)cc3)N2C(=O)N2CCNC(=O)C2)c(OC(C)C)c1 [Nutlin-3] + Cn1cc(/C=C2\C(=O)Nc3cccnc32)c2ccccc21 [GW441756] (first compound 0.1 µM, partner dose 0.4 µM), the “cleaved PARP positive nuclei fraction” value was 65.1%. For COc1ccc(C2=N[C@@H](c3ccc(Cl)cc3)[C@@H](c3ccc(Cl)cc3)N2C(=O)N2CCNC(=O)C2)c(OC(C)C)c1 [Nutlin-3] + COc1ccc(COc2ccc(Cc3cnc(N)nc3N)cc2OC)cc1 [GW2580] (first compound 0.1 µM, partner dose 1 µM), the “cleaved PARP positive nuclei fraction” value was 50.6%. C[C@@H](N)c1ccc(C(=O)Nc2ccnc3[nH]ccc23)cc1 + O=C1NC(=O)/C(=C/c2ccc(-c3ccc(F)cc3O)o2)S1 [AS252424] (first compound 0.4 µM, partner dose 1 µM) was tested, and the “cleaved PARP positive nuclei fraction” value was 70%. C[C@]1(O)C[C@@H](c2nc(-c3ccc4ccc(-c5ccccc5)nc4c3)c3c(N)nccn32)C1 + Oc1cc(-c2nc(-c3ccccc3)[nH]c2-c2ccncc2)ccc1Cl [L779450] (first compound 0.4 µM, partner dose 0.2 µM) was tested, and the “cleaved PARP positive nuclei fraction” value was 55.4%. In the case of CCCCCCCCc1ccc(CCC(N)(CO)CO)cc1 [fingolimod] + COC(=O)c1sccc1S(=O)(=O)Nc1ccc(Nc2ccccc2)cc1OC [GSK0660] (first compound 2 µM, partner dose 1 µM), the “cleaved PARP positive nuclei fraction” value was 27.4%. CCN(CC)CCNC(=O)c1c(C)[nH]c(/C=C2\C(=O)Nc3ccc(F)cc32)c1C [sunitinib] + O=C1NC(=O)/C(=C/c2ccc(-c3ccc(F)cc3O)o2)S1 [AS252424] (first compound 0.4 µM, partner dose 1 µM) was tested, and the “cleaved PARP positive nuclei fraction” value was 530%. In the case of NC1(c2ccc(-c3nc4ccn5c(=O)[nH]nc5c4cc3-c3ccccc3)cc2)CCC1 + CC(C)CCN1c2nc(Nc3cc(F)c(O)c(F)c3)ncc2N(C)C(=O)C1C [BID1870] (first compound 0.4 µM, partner dose 0.2 µM), the “cleaved PARP positive nuclei fraction” value was 22.1%. In the case of CC(=O)O[C@@]12CO[C@@H]1C[C@H](O)[C@@]1(C)C(=O)[C@H](O)C3=C(C)[C@@H](OC(=O)[C@H](O)[C@@H](NC(=O)OC(C)(C)C)c4ccccc4)C[C@@](O)([C@@H](OC(=O)c4ccccc4)[C@H]21)C3(C)C [Docetaxel] + CCCCCCCCCCCC1=C(O)C(=O)C=C(O)C1=O [Embelin] (first compound 0.0001 µM, partner dose 1.2 µM), the “cleaved PARP positive nuclei fraction” value was 96.6%. Cn1cnc2c(F)c(Nc3ccc(Br)cc3Cl)c(C(=O)NOCCO)cc21 [selumetinib] + COc1ccc(COc2ccc(Cc3cnc(N)nc3N)cc2OC)cc1 [GW2580] (first compound 0.015 µM, partner dose 1 µM) was tested, and the “cleaved PARP positive nuclei fraction” value was 187%. For C[C@]1(O)C[C@@H](c2nc(-c3ccc4ccc(-c5ccccc5)nc4c3)c3c(N)nccn32)C1 + O=C(O)C(=O)Nc1sc2c(c1C(=O)O)CCNC2 [TCS401] (first compound 0.4 µM, partner dose 1.66667 µM), the “cleaved PARP positive nuclei fraction” value was 84%. CCN(CC)CCNC(=O)c1c(C)[nH]c(/C=C2\C(=O)Nc3ccc(F)cc32)c1C [sunitinib] + c1cc(-c2cnn3cc(-c4ccc(OCCN5CCCCC5)cc4)cnc23)ccn1 [Dorsomorphin] (first compound 0.4 µM, partner dose 0.4 µM) was tested, and the “cleaved PARP positive nuclei fraction” value was 148%.
